Reference: PubChem BioAssay AID602441 (National Center for Advancing Translational Sciences (NCATS), 2012)
Among all 1,300 compounds or so, fewer than 10 were called active. Roughly 9% stayed inconclusive and do not appear here. Calls come from the whole dose curve; as a rule, active = well fitted curve in the direction sought with a large enough effect; inconclusive = small, poorly fitted or top-dose-only effect, or another doubt; inactive = no such curve, though single readings can be large or run the other way. The list shows a part of the results.

Assay: qHTS for antagonists of the Thyroid Stimulation Hormone Receptor: Hit Validation in Parental Cell Line; note: 0% is about no effect
Settings: parental HEK293 cells lacking TSHR, counter-screen; series mostly up to 56.9 µM; activity change, negative = inhibition: at the top concentration
Description: The thyroid-stimulating hormone receptor (TSHR) is a member of the 7 trans-membrane-spanning receptor (7TMR) family of cell surface receptors. TSHR-mediated hyperthyroidism is important in thyroid pathology. The development of small molecule antagonists of TSHR may lead to therapeutic approaches for TSHR-mediated hyperthyroidism caused by constitutively activating mutations or stimulating auto-antibodies associated with Graves' disease. Graves' disease is the leading cause of hyperthyroidism and is caused by autoantibodies that stimulate TSHR (TsAbs) causing thyroid growth and unregulated overproduction of thyroid hormones and existing treatments have liabilities (agranulocytosis). In addition, TSHRs are known to be expressed in multiple extrathyroidal tissues including bone, brain, kidney, testis, fat and cells of the immune system but the role of the TSHR in these tissues is not clear. Therefore, TSHR antagonists/inverse agonists could be used as probes of extrathyroidal TSHR function. Finally, TSHR inverse agonists, which are a subclass of antagonists that inhibit agonist-independent (or basal or constitutive) TSHR signaling, could be used to inhibit TSH-independent signaling in patients with recurrent or metastatic thyroid cancer who are receiving thyroid hormone to suppress TSH.
In collaboration between scientist from the NCGC and the NIDDK, a miniaturized HTRF high-throughput screen was developed. It's a cell based assay, where an anti cAMP antibody contains a fluorescent cryptate tag (excitation 337 nm; emission 620 nm) and the acceptor is cAMP-d2 (excitation 620 nm; emission 665 nm). When antibody and cAMP-d2 interact and are excited by a 337 nm light, a FRET occurs resulting in emission at 665 nm. The assay is competition between cAMP-d2 and cAMP (from the cell lysate). The homogeneous protocol allows for one step dispense after stimulation that is automation friendly. This is a hit validation assay in a counterscreen using parental HEK 293 cells lines.
NIH Chemical Genomics Center [NCGC]
NIH Molecular Libraries Probe Centers Network [MLPCN]
Assay Provider: Marvin Gershengorn, NIDDK
An anti cAMP antibody contains a fluorescent cryptate tag (excitation 337 nm; emission 620 nm) and the acceptor is cAMP-d2 (excitation 620 nm; emission 665 nm). When antibody and cAMP-d2 interact and are excited by a 337 nm light, a FRET occurs resulting in emission at 665 nm. The assay is competition between cAMP-d2 and cAMP (from the cell lysate). The homogeneous protocol allows for one step dispense after stimulation that is automation friendly. This assay uses parental HEK-EM 293 cells

Structure (SMILES) | activity change, negative = inhibition
COc1ccc(N2C(=O)NC(NS(=O)(=O)c3ccc(Cl)cc3)(C(F)(F)F)C2=O)cc1 (configuration not stated) | inactive: -0.246%
CCc1noc(C)c1C(=O)Oc1ccc(N(C)S(=O)(=O)c2ccc(C)cc2)cc1 | inactive: 0.572%
Cc1cccc(C)c1OCCCn1ccnc1 | inactive: 4.2%
NC(=O)c1cc(S(=O)(=O)NCc2ccc(F)cc2)cs1 | inactive: 5.02%
Cc1ccc(S(=O)(=O)N(CC(=O)NCc2ccccn2)c2ccc(Cl)cc2)cc1 | inactive: 2.85%
Cc1ccc(C)c(S(=O)(=O)N2CCN(C(=O)C3CCN(c4ncnc5sc(C)c(C)c45)CC3)CC2)c1 | inactive: -5.61%
O=C(Nc1nccs1)c1ccc(COc2c(F)c(F)cc(F)c2F)o1 | inactive: -1.76%
COc1ccc(F)cc1CN1CCN(C(=O)CCC(=O)Nc2nnc(CC(C)C)s2)CC1 | inactive: -6.63%
CCOc1cc(N2CCOCC2)c(OCC)cc1NC(=O)c1cc(S(=O)(=O)N2CCOCC2)ccc1C | inactive: 0.812%
COc1cccc(CN(C)C(=O)c2ccc(Oc3ccccc3)cc2)c1OC | inactive: 2.59%
CCOC(=O)N1CCN(C(=O)c2ccc(NS(=O)(=O)c3ccc(C)cc3)cc2)CC1 | inactive: 0.522%
Cc1nc(NCCc2ccccc2)c(C#N)c(C)c1[N+](=O)[O-] | inactive: 0.962%
COC(=O)C1C(=O)NC(SC)=C(C#N)C1c1ccccc1 (configuration not stated) | inactive: 2.62%
COC(CNC(=O)c1cn(C)c2ccc(S(=O)(=O)N3CCOCC3)cc2c1=O)OC | inactive: 2.39%
CCOc1cc(S(=O)(=O)n2cnc(C)c2)ccc1Cl | inactive: 1.58%
O=C(Nc1nc(-c2ccccc2)cs1)c1ccccc1NS(=O)(=O)c1ccc(F)cc1 | inactive: -4.31%
Cn1c2c(c(=O)n(C)c1=O)C(C(F)(F)F)(C(F)(F)F)N=C(c1ccc(Cl)cc1)N2 | inactive: 0.519%
N#Cc1nc(-c2ccccc2)oc1N1CCN(C(=O)c2ccco2)CC1 | inactive: -6.58%
CC(C)Cc1csc(NC(=O)c2ccc(Br)cc2)c1C(=O)O | inactive: 5.96%
O=C1C=C(c2ccc3[nH]ccc3c2)C[C@@H](c2ccc(Cl)cc2)C1 | inactive: -7.98%
O=C1NC(=S)S/C1=C\c1ccc2ccccc2c1 | inactive: -3.05%
O=C(O)c1ccc(S(=O)(=O)N(Cc2ccccc2)Cc2ccccc2)cc1 | inactive: 1.07%
Cc1nnc(SCC(=O)Nc2nonc2C)s1 | inactive: 2.38%
CC(=O)N/C(=C\c1ccc(Cl)cc1)C(=O)O | inactive: 7.1%
COc1cccc(NC(=S)N2CCCN(Cc3ccc(F)cc3)C2)c1 | inactive: -4.55%
Cc1ccc2c(CN3CCN(S(=O)(=O)c4ccc(Cl)cc4)CC3)cc(=O)oc2c1C | inactive: -0.247%

Structure (SMILES) | activity change, negative = inhibition
O=C(O)/C=C/c1ccc(S(=O)(=O)Nc2ccccc2C(=O)Nc2ccc(F)cc2)cc1 | inactive: -0.409%
COc1ccc(NC(=S)N(CCCN2CCOCC2)C(C)c2cc3cccc(OC)c3o2)cc1 (configuration not stated) | inactive: 1.87%
Cc1ccc(-n2nc3c(=O)n(C(C)C(=O)NC4CC4)nc(C)c3c2C)cc1 (configuration not stated) | inactive: 0.548%
O=C(Nc1ccc(C(F)(F)F)cc1)c1csc(-c2ccncc2)n1 | inactive: -1.76%
Cc1c(C(=O)NCc2ccc3c(c2)OCO3)sc2nc(-c3ccccc3)cn12 | inactive: -2.35%
CCOc1cc(C(=S)N2CCOCC2)ccc1OC(=O)c1ccccc1 | inactive: 4.47%
CC(=O)c1ccc(NC(=O)C(C)N(C)CC(=O)Nc2ccc(N3CCOCC3)cc2)cc1 (configuration not stated) | inactive: 0.607%
COc1ccc(C(c2nnnn2Cc2cccs2)N2CCN(c3ccccc3)CC2)cc1OC (configuration not stated) | inactive: 3.11%
CSc1nsc(NC(=O)OCc2ccc(Cl)cc2)n1 | inactive: 1.32%
CCOc1cc(/C=C(\C#N)c2nc(-c3cccs3)c(NC(C)=O)s2)ccc1O | inactive: 2.66%
O=C(NC(=S)Nc1ccccc1)c1cc(-c2ccccc2)nc2ccccc12 | inactive: 3.92%
O=C(CSc1ncnc2ccccc12)c1ccc2c(c1)OCCO2 | inactive: 5.67%
Cc1c(C(=O)OC/C(O)=C(\C#N)c2nc3ccccc3[nH]2)oc2ccc(Br)cc12 | inactive: 3.5%
COc1ccc(S(=O)(=O)Nc2ccc(C)cc2)cc1N(C)S(=O)(=O)c1ccc(Cl)cc1 | inactive: 2.85%
Cc1cc(C=O)c(C)n1-c1ccc(NC2CCCC2)c([N+](=O)[O-])c1 | inactive: 5.23%
O=C(Nc1ccccc1)c1nnsc1S(=O)(=O)c1ccc(Cl)cc1 | inactive: 6.33%
CC(Sc1nn(-c2ccc(F)cc2)c(=S)s1)C(=O)c1c(N)n(C)c(=O)n(C)c1=O (configuration not stated) | inactive: -7.87%
CCCCCCOc1ccc(NC(=O)CC2C(=O)N(CC)C(=S)N2Cc2ccco2)cc1 (configuration not stated) | inactive: -0.899%
Cn1cc(Cl)c(C(=O)N/N=C/c2ccc3c4c(cccc24)CC3)n1 | inactive: -6.33%
COCCNC(=S)N1CCCN(c2nc3cc(C)ccc3cc2C#N)CC1 | inactive: -2.31%
O=C(NC(Nc1nc2ccc([N+](=O)[O-])cc2s1)(C(F)(F)F)C(F)(F)F)c1ccccc1 | inactive: -4.16%
O=S(=O)(Nc1cccc(-c2cn3cccnc3n2)c1)c1ccc(-c2ccccc2)cc1 | inactive: 3.62%
CCc1nn(CC(=O)N2CCCCCC2)c(=O)c2cc3ccccc3n12 | inactive: 0.928%
Cn1c(CNC(=O)C(Cc2ccccc2)NC(=O)c2ccccc2)cc(=O)n(C)c1=O (configuration not stated) | inactive: 3.33%
O=C(c1ccccc1)c1ccc(Cn2cc(-c3ccccc3)nn2)cc1 | inactive: -0.645%
CC(OC(=O)C1CCN(c2ccc(C(F)(F)F)cn2)CC1)C(=O)Nc1cccc([N+](=O)[O-])c1 (configuration not stated) | inactive: -5.48%

Structure (SMILES) | activity change, negative = inhibition
COC(=O)c1cc(-c2c[nH]c3ccccc23)n[nH]1 | inactive: -5.11%
Cc1ccc(SCC(=O)NCc2ccccc2C)cc1 | inactive: 2.23%
CCC(C)(C)C1CCC(NC(=O)N2CCN(c3ccccc3O)CC2)CC1 (configuration not stated) | inactive: -0.155%
C/C(=N/NS(=O)(=O)c1ccc(Br)cc1)c1ccc(NC(=O)c2ccc(C)o2)cc1 | inactive: 0.352%
CC(C)C(c1nnnn1C(C)(C)C)N1CCN(c2cccc(Cl)c2)CC1 (configuration not stated) | inactive: -3.14%
Oc1c(Cl)cc(Cl)c(Cl)c1Cc1c(O)c(Cl)cc(Cl)c1Cl | inactive: 0.712%
O=C(Nc1ccc2nc3n(c(=O)c2c1)CCCCC3)C(=O)N1CCN(c2ccccc2F)CC1 | inactive: 1.09%
COc1ccc(NS(=O)(=O)c2cc(NC(=O)/C=C/c3cc(OC)ccc3OC)ccc2N2CCCCC2)cc1 | inactive: 3.57%
Cc1cc(=O)[nH]c(SCC(=O)Nc2ccc(Br)cc2)c1C#N | inactive: -3.68%
CC(C)Cn1c(-c2csc3c2CCCC3)n[nH]c1=S | inactive: 2.13%
COCCn1nnnc1C(c1cccs1)N1CCN(c2cc(C)ccc2C)CC1 (configuration not stated) | inactive: -0.758%
Cc1nn(S(=O)(=O)c2ccccc2)c(C)c1Sc1ccc([N+](=O)[O-])cc1 | inactive: -3.75%
Cc1nc2ccc(Nc3nc4cc(S(=O)(=O)N5CCOCC5)ccc4o3)cc2s1 | inactive: -7.93%
CC(C)COc1cccc(-c2cc(C(=O)Nc3ccon3)c3ccccc3n2)c1 | inactive: 0.601%
CCOC(=O)N1CCN(C(=O)CCc2ccccc2)CC1 | inactive: 4.67%
CCOC(=O)c1sc(NC(=O)CSc2n[nH]c(-c3ccncc3)n2)c(C#N)c1C | inactive: -2.27%
c1ccc(CNc2ncnc3scc(-c4cccs4)c23)nc1 | inactive: 1.13%
CCOc1ccc2nc(SC3CC(=O)N(c4ccccc4)C3=O)sc2c1 (configuration not stated) | inactive: 2.27%
O=C(COc1ccc(-c2ccccc2)cc1)Nc1cccnc1 | inactive: -1.76%
CC(C)(C)NC(=O)C(c1ccc(O)cc1)N(Cc1ccccc1)C(=O)CCC(=O)Nc1nccs1 (configuration not stated) | inactive: -0.917%
Cc1cc(C(=O)NC2CCCc3c2cnn3-c2ccc(C(C)(C)C)cc2)nn1C (configuration not stated) | inactive: 3.91%
CC(NC(=O)c1ccc([N+](=O)[O-])o1)C12CC3CC(CC(C3)C1)C2 (configuration not stated) | inactive: 3.84%
CC1CCN(Cc2c(C(=O)N/N=C/c3cc(Cl)ccc3O)nnn2-c2nonc2N)CC1 | inactive: 5.93%
CCc1cc2c(NCc3ccccc3)nc(C)nc2s1 | inactive: -2.57%
O=S(=O)(Nc1ccc2cn[nH]c2c1)c1cc(Br)ccc1Br | inactive: -1.89%
CC1(C)CC(=O)c2c(nc3ccccc3c2N)C1 | inactive: 1.27%

Structure (SMILES) | activity change, negative = inhibition
COc1cccc(-c2nc(CS(=O)(=O)CC(=O)N3CCCCC3)c(C)o2)c1 | inactive: 1.63%
O=C(c1cc(COc2cccc3cnccc23)on1)N1CCCC(CCCO)C1 (configuration not stated) | inactive: -1.72%
CCC(=O)OCCNc1cc(Sc2nc3ccccc3[nH]2)c2nonc2c1[N+](=O)[O-] | inactive: -1.9%
Cc1ccc(C(=O)COC(=O)CCN2C(=O)C3C4CCC(C4)C3C2=O)cc1[N+](=O)[O-] (configuration not stated) | inactive: 0.395%
COc1ccc(C(=O)/C=C/Nc2ccc(S(=O)(=O)Nc3cccc(C(C)=O)c3)cc2)cc1 | inactive: -4.49%
Cc1ccc(NC(=O)Cn2nnc(C(=O)NCCc3ccccc3)c2N)c(C)c1 | inactive: 5.5%
CC(C)c1ccc(/C=C/C(=O)NCCC2=CCCCC2)cc1 | inactive: 5.35%
COc1ccc(-c2nnc(NC(=O)c3ccc4c(c3)OCCO4)o2)cc1 | inactive: -3.16%
COc1cc2c(cc1OC)CN(C(=S)NC(=O)c1ccccc1)CC2 | inactive: 0.268%
O=C(Nc1ccncc1)C1CCN(S(=O)(=O)c2cccc(C(F)(F)F)c2)CC1 | inactive: 0.358%
COc1ccc(NC(=O)/C(Cl)=C(/Cl)S(=O)Cc2ccc(Cl)cc2)cn1 (configuration not stated) | inactive: 8.76%
O=c1[nH]c(=S)[nH]c2c1CN(Cc1ccc(F)cc1)CC2 | inactive: 3.31%
COc1cccc(CNC(=O)CN2C(=O)CSc3ccc(S(=O)(=O)N4CCOCC4)cc32)c1 | inactive: 2.37%
CC1CCCC(N2CCN(S(=O)(=O)c3ccccc3)CC2)C1 (configuration not stated) | inactive: 4.68%
Cc1nn(-c2ccc(N3CCOCC3)nn2)c(C)c1CCC(=O)NCc1ccccc1F | inactive: 3.95%
Cc1ccc(N2C(=O)C3C4C=CC(CC4)C3C2=O)cc1Cl (configuration not stated) | inactive: -0.0062%
CCCCCCSc1ccc(-c2nc3ccc(Cl)cn3c2NCCCC)cc1OC | inactive: 4.59%
COC(=O)c1nc2n(n1)C(c1cccc(Cl)c1)C1=C(CCCC1=O)N2 (configuration not stated) | inactive: 4.65%
CCOC(=O)COc1ccc(S(=O)(=O)NCCC2=CCCCC2)cc1 | inactive: 1.89%
Cc1nc2ncnn2c(N2CCCC(C(=O)Nc3ccccc3Br)C2)c1C (configuration not stated) | inactive: 5.02%
N#CC1=C(N)NC(SCc2ccc(Br)cc2)=C(C#N)C12CCCCC2 | inactive: -3.27%
O=C(NC1C2CC3CC(C2)CC1C3)c1ccc2c(c1)OCO2 (configuration not stated) | inactive: 4.95%
OCCSc1nnc(Nc2ccccc2)s1 | inactive: 1.36%
Cc1ccc(C(=O)C2=C(O)C(=O)N(c3ncccn3)C2c2ccccc2F)o1 (configuration not stated) | inactive: 34.2%
